Results are given in words; binding and its absence hold for the method and conditions named. Binding seen in cells or lysates may run through a third protein. Some results given as binding are weak or reduced against the parent protein; the word gives no strength.
Columns and labels:
[1] = target: GFP-Ubx WT (Ultrabithorax, exogenous GFP fusion protein) (Drosophila) (UniProt P83949); assay: co-IP
[2] = target: endogenous GFP-Ubx fusion protein (GFP-Ubx^3.005 line) (Drosophila (endogenous locus in embryos)) (UniProt P83949); assay: co-IP

By UniProt entry, the sequences of proteins in these tests, tags left out.
UniProt P83949, whole entry: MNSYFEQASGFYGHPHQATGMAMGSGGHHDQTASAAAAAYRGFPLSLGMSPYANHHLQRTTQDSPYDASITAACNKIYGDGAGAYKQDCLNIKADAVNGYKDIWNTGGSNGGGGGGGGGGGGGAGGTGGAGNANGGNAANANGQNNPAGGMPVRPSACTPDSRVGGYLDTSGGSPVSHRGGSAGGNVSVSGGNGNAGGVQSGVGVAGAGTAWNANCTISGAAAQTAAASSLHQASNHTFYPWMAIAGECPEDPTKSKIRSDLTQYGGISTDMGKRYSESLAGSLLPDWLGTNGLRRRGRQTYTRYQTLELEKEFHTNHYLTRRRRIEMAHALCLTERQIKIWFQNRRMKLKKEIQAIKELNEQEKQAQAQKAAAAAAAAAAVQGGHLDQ
UniProt Q8ST83, whole entry: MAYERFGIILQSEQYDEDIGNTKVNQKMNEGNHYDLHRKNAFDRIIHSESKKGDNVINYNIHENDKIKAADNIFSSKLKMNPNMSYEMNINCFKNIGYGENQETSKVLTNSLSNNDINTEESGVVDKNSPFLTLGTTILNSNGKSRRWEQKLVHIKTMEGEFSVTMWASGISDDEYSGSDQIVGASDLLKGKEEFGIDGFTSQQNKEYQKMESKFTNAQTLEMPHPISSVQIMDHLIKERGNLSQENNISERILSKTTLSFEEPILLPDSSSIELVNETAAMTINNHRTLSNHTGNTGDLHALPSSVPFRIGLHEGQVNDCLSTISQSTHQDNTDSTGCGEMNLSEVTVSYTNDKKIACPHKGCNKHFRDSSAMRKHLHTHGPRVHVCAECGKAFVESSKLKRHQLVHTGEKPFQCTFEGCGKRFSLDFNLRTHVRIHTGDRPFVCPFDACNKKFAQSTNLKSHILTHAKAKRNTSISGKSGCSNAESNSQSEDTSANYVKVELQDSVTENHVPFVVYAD

Q: For “HA-Pho (Pleiohomeotic) (from UniProt Q8ST83 1-520)”, which binding [1] is on record?
A: Its binding is “binds”.

Q: How did the binding [2] turn out when “Pleiohomeotic (Pho), endogenous (from UniProt Q8ST83 1-520)” was run?
A: Its binding is “binds”.

Source: doi:10.1101/437947
